This is an account of results in paper PMC6393303.

By UniProt entry, the sequences of proteins in these tests, tags left out. Where a name states a change or a piece, a line headed by the entry shows the natural chain unless it says otherwise. Chains listed by the source or under a name are the forms on record and can include a tag or linker.
Pol32-11 (amino acids 1–142 + 310–350, lacking amino acids 143–309) (P47110, form named): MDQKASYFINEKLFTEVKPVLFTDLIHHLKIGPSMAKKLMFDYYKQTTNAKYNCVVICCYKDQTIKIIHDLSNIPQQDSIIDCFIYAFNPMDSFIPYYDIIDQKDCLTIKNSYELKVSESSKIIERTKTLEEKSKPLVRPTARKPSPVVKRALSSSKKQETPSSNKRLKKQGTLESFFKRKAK

Results are given in words; binding and its absence hold for the method and conditions named. Some entries that bind do so weakly or less than the wild type.

The experiment deals with T1, Pol3 catalytic subunit of mini-Pol δ-DV (N-terminal truncation of 81 amino acids, D520V) (S. cerevisiae) (UniProt P15436).
T1 sequence: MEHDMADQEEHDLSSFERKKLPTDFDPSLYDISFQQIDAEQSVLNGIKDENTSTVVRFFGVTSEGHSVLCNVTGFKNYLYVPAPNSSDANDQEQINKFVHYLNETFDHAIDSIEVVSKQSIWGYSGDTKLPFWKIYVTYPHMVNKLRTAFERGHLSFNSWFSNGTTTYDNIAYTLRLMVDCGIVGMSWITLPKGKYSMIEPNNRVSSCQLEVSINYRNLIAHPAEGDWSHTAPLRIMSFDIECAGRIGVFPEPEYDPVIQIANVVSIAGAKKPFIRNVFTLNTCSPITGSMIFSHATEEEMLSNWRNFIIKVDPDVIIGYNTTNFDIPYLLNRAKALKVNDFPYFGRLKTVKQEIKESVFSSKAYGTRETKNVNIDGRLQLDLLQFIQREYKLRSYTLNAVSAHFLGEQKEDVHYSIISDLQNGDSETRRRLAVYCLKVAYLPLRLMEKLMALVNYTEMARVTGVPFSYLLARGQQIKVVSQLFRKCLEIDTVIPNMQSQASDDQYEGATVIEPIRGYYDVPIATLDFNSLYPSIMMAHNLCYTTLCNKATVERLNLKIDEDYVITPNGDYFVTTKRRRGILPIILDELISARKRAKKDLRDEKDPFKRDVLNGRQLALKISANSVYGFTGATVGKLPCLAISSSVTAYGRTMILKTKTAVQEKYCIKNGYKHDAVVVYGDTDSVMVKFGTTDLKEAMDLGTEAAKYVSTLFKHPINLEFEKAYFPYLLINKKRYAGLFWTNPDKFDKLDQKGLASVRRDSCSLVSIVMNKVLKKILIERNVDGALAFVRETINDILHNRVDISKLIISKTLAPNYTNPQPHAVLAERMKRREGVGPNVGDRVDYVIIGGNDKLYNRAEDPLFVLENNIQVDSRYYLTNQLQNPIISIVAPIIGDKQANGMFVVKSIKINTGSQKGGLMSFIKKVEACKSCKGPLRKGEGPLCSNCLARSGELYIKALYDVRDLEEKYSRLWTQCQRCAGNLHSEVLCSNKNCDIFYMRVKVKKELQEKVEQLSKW
Put plainly: co-purification; mini-Pol δ-DV overexpressed in yeast and purified as a three-subunit complex; subunits seen in approximately equimolar ratio (Supplementary Figure S1A).

As for “Pol32-11 (amino acids 1–142 + 310–350, lacking amino acids 143–309) (from UniProt P47110 1-350) (domain or fragment)”, the binding result is “binds”.
